# No constants are given. Whether binding was seen depends on the method and setting. Some results given as binding are weak or reduced against the parent protein; the word gives no strength.
# Sequences of proteins named here, by UniProt entry; tags and fusion partners are left off.
# UniProt Q03048: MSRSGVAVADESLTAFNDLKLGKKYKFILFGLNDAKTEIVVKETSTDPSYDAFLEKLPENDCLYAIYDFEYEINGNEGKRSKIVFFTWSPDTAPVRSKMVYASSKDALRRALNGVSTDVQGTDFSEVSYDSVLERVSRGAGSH
# Biological target: T1, TBSV p33 replication protein (bait of the split-ubiquitin assay) (Tomato bushy stunt virus) (UniProt P15962)
# T1 sequence: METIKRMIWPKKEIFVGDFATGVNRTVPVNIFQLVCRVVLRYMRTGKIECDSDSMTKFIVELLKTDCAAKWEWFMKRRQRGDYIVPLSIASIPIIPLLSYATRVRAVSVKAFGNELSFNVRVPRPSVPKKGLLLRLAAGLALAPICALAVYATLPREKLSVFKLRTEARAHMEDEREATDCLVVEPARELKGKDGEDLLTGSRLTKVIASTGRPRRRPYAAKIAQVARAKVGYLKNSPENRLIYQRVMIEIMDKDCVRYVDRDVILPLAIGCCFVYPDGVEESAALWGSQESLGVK
# Assay: two-hybrid; split-ubiquitin assay in yeast; p33 as bait co-expressed with NubG prey proteins; SSA1 and the empty prey vector (NubG-X) as positive and negative controls
substance,measurement,value
"Cof1p (yeast cofilin), wild type, split-ubiquitin prey (from UniProt Q03048 1-143)",binding,binds
